Assay results as given in patent US20050255117A1 (Biogen, published 2005).
These are yes or no findings as the source states them, for the method shown. Some results given as binding are weak or reduced against the parent protein; the word gives no strength.

B1: Activin B (ligand, UniProt P09529 293-407, looked up)
chain: GLECDGRTNLCCRQQFFIDFRLIGWNDWIIAPTGYYGNYCEGSCPAYLAGVPGSASSFHTAVVNQYRMRGLNPGTVNSCCIPTKLSTMSMLYFDDEYNIVKRDVPNMIVEECGCA

Key:
[1] = target: T1, Activin B (UniProt P09529); assay: ELISA, Activin B coated on the plate, CR-Fc detected with anti-Fc-alkaline phosphatase
T1 sequence (looked up): B1 chain

[2] = target: T2, CR-Fc (UniProt P13385 31-169); assay: competition ELISA: CR-Fc pre-incubated with Activin B in solution, then added to an Activin B coated plate
T2 construct: not shown: Fc part; not described
T2 sequence (looked up): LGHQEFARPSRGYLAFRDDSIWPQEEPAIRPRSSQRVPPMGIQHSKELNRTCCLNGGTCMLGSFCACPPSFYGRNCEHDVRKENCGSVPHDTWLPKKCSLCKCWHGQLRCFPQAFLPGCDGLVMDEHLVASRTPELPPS

[3] = target: T2, CR-Fc; assay: Biacore, CR-Fc immobilized on the chip

Molecule | binding [1] | binding [2] | binding [3]
CR-Fc (from UniProt P13385 31-169) (Fc fusion) | binds | – | –
B1 | – | binds | binds
